This note sets out measurements from PMC7819943, “Rice protein-binding microarrays: a tool to detect cis-acting elements near promoter regions in rice”.

The chains behind the UniProt entries cited, without tags or fusion partners.
UniProt Q0JBA9, entry or part of it: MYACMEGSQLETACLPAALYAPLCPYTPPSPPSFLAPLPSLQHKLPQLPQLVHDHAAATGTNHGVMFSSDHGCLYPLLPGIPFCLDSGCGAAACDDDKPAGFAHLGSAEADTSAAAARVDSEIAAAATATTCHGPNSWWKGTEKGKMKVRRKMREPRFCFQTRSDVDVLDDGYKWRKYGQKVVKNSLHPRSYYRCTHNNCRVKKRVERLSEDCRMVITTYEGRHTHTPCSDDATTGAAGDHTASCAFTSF

The other results are listed elsewhere or left out.

The assay concerns the target OsWRKY34 (Oryza sativa, UniProt Q0JBA9 1-250). Briefly: protein-binding microarray (RPBM); PBS, 2% BSA, 51.3 ng/ul salmon testes DNA, 50 uM zinc acetate, 200 nM TF, 25 C, 1 h; high values mean tight binding. The settings on record: protein: recombinant; tags: N-terminal polyhistidine and DsRed monomer fusion (pET32a); label: CyDye5-dUTP incorporated in the synthesized complementary strand; 3' TTTTT single-stranded linker to array surface; dsDNA, one strand shown. The essentials:
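Per-feature fluorescence intensity (arbitrary units), read on an Axon 4000B scanner, is the binding signal. Transcription factors carrying an N-terminal polyhistidine tag and DsRed fusion were expressed in E. coli BL21-CodonPlus and purified on Ni–NTA. A custom Agilent array, made double-stranded by primer extension with Cy5-dUTP and blocked with 2% BSA, was incubated with 200 nM protein in PBS, 2% BSA, salmon testes DNA and 50 µM zinc acetate at 25 °C for 1 h and then washed.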
For the sequence “CCGCCGTCGCGTGGGAGGGGAGGGGAGGGGATGGAAGGAGCGGAGTCACCTAGTGCAG”, the binding signal was 11900 fluorescence intensity (a.u.). As for “ATTGTTTTATTTGGGTGATTAAATTTGTTTTTATTTACATCGGAGTCACCTAGTGCAG”, the binding signal is 8430 fluorescence intensity (a.u.).

Consider “CAGATGTGTAGTCTTTTGTTTCTTCTATTTATTTATTCTACGGAGTCACCTAGTGCAG”, for which the binding signal was 12900 fluorescence intensity (a.u.). The figure for “CATTAGATTTACATTTTGGTTTTGGATCGATTAATTCATGCGGAGTCACCTAGTGCAG” is 10100 fluorescence intensity (a.u.).

As for “GCTAGTTAGTATTGTTGTTTGAGCCGTATATTTTCTGTCGCGGAGTCACCTAGTGCAG”, the binding signal was 12000 fluorescence intensity (a.u.).

Regarding “TCTGTAATCGTGGTGTTCATGTGTGTGAAATTGATGTTTTCGGAGTCACCTAGTGCAG”, the binding signal was 9700 fluorescence intensity (a.u.). Consider “AATACGATTCCACCACCGCCTCTCATCTCCTCCTTTCTCGCGGAGTCACCTAGTGCAG”, for which the binding signal was 8280 fluorescence intensity (a.u.). Take “ATCCTGTAGTCAACGGTTATGCATTCTTCTAATTGTTGTACGGAGTCACCTAGTGCAG”: the binding signal is 8800 fluorescence intensity (a.u.).

Take “ATTTGCTTAACTACGACGCCAGCATCGGCCTTTATTTCTTCGGAGTCACCTAGTGCAG”: the binding signal was 9360 fluorescence intensity (a.u.). As for “GCCATTCTATAGGAGGTGGTGGGGAGGGTTTCGTGCTCCTCGGAGTCACCTAGTGCAG”, the binding signal is 10800 fluorescence intensity (a.u.). Regarding “AGCTGCCCCACACCTGGCTCCGCCCCTGGCTCCGGGCACCCGGAGTCACCTAGTGCAG”, the binding signal was 8250 fluorescence intensity (a.u.). For “CTTTTGTTGTTCCCAATGCCACTGCCATGTCCATTTCTTGCGGAGTCACCTAGTGCAG” the value was 10900 fluorescence intensity (a.u.). The figure for “AACTGCCGGTTGCCATGTTTAATTTGTCCACGCTAAGCTTCGGAGTCACCTAGTGCAG” is 8570 fluorescence intensity (a.u.); for “GTCCTGCATGCACCGCCCATGCCGCCCTGGGCCCACCGCTCGGAGTCACCTAGTGCAG” it is 8040 fluorescence intensity (a.u.). For “CAATTTTCCCTCCCCTTTCATTCACCGTACTAACTTTATCCGGAGTCACCTAGTGCAG” the value was 9590 fluorescence intensity (a.u.); for “CCACGCGGCCACGCTATGCACGCGACGCCCACATCCACCACGGAGTCACCTAGTGCAG”, 9660 fluorescence intensity (a.u.); for “CTTATTTTTTTGTCTTTCGATCCAAGTCTTTTTTTTCTTTCGGAGTCACCTAGTGCAG”, 9170 fluorescence intensity (a.u.). Regarding “ATCTCTCTTTCATCTTTCTTCTTTCTGCCTTTTTATCTTCCGGAGTCACCTAGTGCAG”, the binding signal is 11800 fluorescence intensity (a.u.). Consider “GTGGTTACTGTGGCTGGGCCTGCGTGAGCTGGGCTGACTACGGAGTCACCTAGTGCAG”, for which the binding signal is 9220 fluorescence intensity (a.u.). Consider “AACCTGCACGCTCATGTTGTTGTTTTGTGAAGATGCAACTCGGAGTCACCTAGTGCAG”, for which the binding signal was 8030 fluorescence intensity (a.u.).

In the case of “ACTCTACTCTCCTACTAGTCGTCTACTACTCGGCCAGGTGCGGAGTCACCTAGTGCAG”, the binding signal is 10300 fluorescence intensity (a.u.). For “GATCTTGCGCTCGCATCGATTGCCAAGTTCTGCCCGAGCTCGGAGTCACCTAGTGCAG” the value was 8710 fluorescence intensity (a.u.); for “CATGATCGTTTTGAGAGAACACATGCCATTTCCATCCTTACGGAGTCACCTAGTGCAG”, 8250 fluorescence intensity (a.u.). For “GGCTGCACATACTTCCACCGAGACCGACTCCGTTTCCTCTCGGAGTCACCTAGTGCAG”, the binding signal is 9120 fluorescence intensity (a.u.). For “CTCTCTTGCCTCTCCTGTCTCTTTCTCGGATTTTTCTCATCGGAGTCACCTAGTGCAG” the value was 9020 fluorescence intensity (a.u.); for “CTCGTCACATTACTCCGGCCCACTGTTGATTCCGTTCTGACGGAGTCACCTAGTGCAG”, 9180 fluorescence intensity (a.u.); for “CTACACCTTTTGCTTTGCTTTACCAGTCCCGAAACAACTACGGAGTCACCTAGTGCAG”, 9660 fluorescence intensity (a.u.).

With “TACACCTGCCACTGCTGCTGACCCTGCCAACCCCAACAAGCGGAGTCACCTAGTGCAG”, the binding signal was 8600 fluorescence intensity (a.u.). For “AGTATTTAAGTAGTACTGTTATTTTCTCGTGTAATTCTGACGGAGTCACCTAGTGCAG” the value was 8740 fluorescence intensity (a.u.); for “TTGGGTTGGTGCTTGACCAATATATATGGGGTGTGTGTGTCGGAGTCACCTAGTGCAG”, 8250 fluorescence intensity (a.u.). Consider “GGTGTGGTGGTGGGGATTCCGCGCCGGCGAAAATCTCCGCCGGAGTCACCTAGTGCAG”, for which the binding signal is 8180 fluorescence intensity (a.u.). With “CTCCGCCACCGCAAACATTCATTTTCCCACAACTGTTGGCCGGAGTCACCTAGTGCAG”, the binding signal was 9760 fluorescence intensity (a.u.).

With “AGGCACGCACATTGCACGTACGGCTGCACACCACGCTCACCGGAGTCACCTAGTGCAG”, the binding signal was 8230 fluorescence intensity (a.u.). Regarding “GACCTACATTGCCGACTGCCGCAACGCGACCACCGCCACTCGGAGTCACCTAGTGCAG”, the binding signal was 8530 fluorescence intensity (a.u.). For “TACTCCTAGCTAGCAACCGCGCGCATTTTCTGACCTGTCCCGGAGTCACCTAGTGCAG”, the binding signal is 9560 fluorescence intensity (a.u.). With “ACCGAAAGTTCAATTTGGTCCTTTACATTTTATTTTGTCCCGGAGTCACCTAGTGCAG”, the binding signal was 8240 fluorescence intensity (a.u.). On to “TAACAAAAGTGTGTGCTTGCTATGTAGGTCTATTATTCAGCGGAGTCACCTAGTGCAG”, for which the binding signal was 8130 fluorescence intensity (a.u.).

For “GCGGCTGGTGCGATCGGAGAGGTGGGTGTGTGCTTGTTTCCGGAGTCACCTAGTGCAG”, the binding signal was 8220 fluorescence intensity (a.u.). For the sequence “GATAGGGTTAGCAGGGTGGGAAAATATATTTATTATAGTTCGGAGTCACCTAGTGCAG”, the binding signal is 18700 fluorescence intensity (a.u.). For the sequence “CACATCACCGAATTCCACCTTCTCATGCGGCTTCTACCCACGGAGTCACCTAGTGCAG”, the binding signal was 11300 fluorescence intensity (a.u.). On to “ATAATGATATGTGTGTGCTAGCTAGCTATTGTTGATTTGTCGGAGTCACCTAGTGCAG”, for which the binding signal is 8740 fluorescence intensity (a.u.). Turning to “CCCTGCCGATCTCTCTGAATTCGGTCGCCTCCTCCGCACCCGGAGTCACCTAGTGCAG”, the binding signal was 9210 fluorescence intensity (a.u.).
